From patent US11666558B2, “Methods of treating intraocular pressure with activators of Tie-2” (EyePoint Pharmaceuticals, Inc., priority 2015, dated 2023)
“And” between values parts separate entries of the source, which are not always exact repeats. Equal entries are not always repeated. Structures can show the parent of a compound that is named as a salt. The source gives many values for each of these; only a part stands here.

Legend:
[1] = Plasma concentrations and pharmacokinetic parameters after topical ocular, subcutaneous and intravitreal administration; format: in vivo, New Zealand White rabbits; conditions: topical ocular 1.2 mg/eye (~0.7 mg/kg/dose); 4.0 hr
Description: To measure the concentration of Compound 1 in plasma and ocular tissues following topical ocular, subcutaneous, and intravitreal administration, New Zealand White rabbits were administered Compound 1, and plasma and ocular samples were collected at pre-determined time points. Compound 1 formulations were prepared fresh on each day of dosing.
New Zealand White rabbits weighing 2.5 to 3.5 kg were used on this study. Rabbits were housed one per cage. Animals were not fasted and only healthy animals with no ocular illness were used. Two rabbits per group were sacrificed at each of four ocular tissue sampling time points for a total of eight rabbits per group. […]
Each blood sample was collected on Day 3 post dose at pre-determined time points from the rabbits via an ear vessel and placed into chilled polypropylene tubes containing sodium heparin as an anticoagulant. […]
An LC-MS/MS method was developed for the determination of Compound 1 in rabbit aqueous tissues (plasma, aqueous and vitreous humor) and solid ocular tissue samples. A pre-study standard curve was analyzed to determine the specificity, range, and lower limit of quantitation of the method. Plasma and tissue homogenate study samples were extracted and analyzed. […]
Pharmacokinetic parameters were calculated from the time course of the plasma concentration. […]

intraocular pressure = experiment: Intraocular pressure (pneumotonometer) after repeated topical and subcutaneous administration in normotensive rabbits; format: in vivo, New Zealand White rabbits
Description: To measure the tolerability and effect of Compound 1 (sodium salt) on intraocular pressure following repeated topical and subcutaneous administration, normotensive New Zealand White rabbits were treated with Compound 1 (sodium salt). Animals were acclimated 1 to 2 times per day to the intraocular pressure (IOP) measurement procedures prior to initiation of the study to determine baseline IOP levels. IOP acclimation was performed in the two weeks prior to study start for a total of 5 days. Animals with unacceptable IOP values were excluded from the study. Prior to taking all IOP measurements, 1 to 2 drops of a 0.5% proparacaine solution were applied to the eye as a topical anesthetic. OP measurements were performed with a pneumotonometer. Test and control formulations were administered to the animals once or twice daily topically into both eyes or subcutaneously starting on Day 1 according to TABLE 20 and TABLE 21 below. PM dosing, where applicable, was performed ˜8 hours after AM dosing. IOP measurements were performed twice (AM and PM) at baseline (prior to the start of dosing), twice (AM and PM) on Days 1 and 7, and once daily (AM) on Days 2-6 and Day 8. Prior to taking all IOP measurements, 1 to 2 drops of a 0.5% proparacaine solution were applied to the eye as a topical anesthetic. IOP measurements were performed with a pneumotonometer. AM IOP measurements were performed 2 hours after AM dosing; the only exceptions were Day 8 AM measurements, which were performed 24 hours after the final dose. PM IOP measurements were performed ˜5 hours (baseline and Day 1) or ˜4 hours (Day 7) after AM IOP measurements, prior to PM dosing, with at least 15 minutes elapsing between anesthetic application for PM IOP measurements and PM dosing. The final round of slit-lamp examinations was performed on Day 8.

SMILES: COC(=O)N[C@@H](Cc1ccccc1)C(=O)N[C@@H](Cc1ccc(NS(=O)(=O)O)cc1)c1csc(-c2cccs2)n1 [Compound 1 sodium salt]
- plasma Conc., individual rabbit [1]: 13.0 ng/mL
- Intraocular pressure (IOP), individual animal (intraocular pressure; Group 2, 0.45 mg/eye topical BID, Day 6, AM, OD): 27.0 and 23.7 and 24.5
- Intraocular pressure (IOP), individual animal (intraocular pressure; Group 2, 0.45 mg/eye topical BID, Day 6, AM, OS): 24.7 (2×) and 25.0
- Intraocular pressure (IOP), individual animal (intraocular pressure; Group 2, 0.45 mg/eye topical BID, Day 7, AM, OD): 24.2 and 23.5
- Intraocular pressure (IOP), individual animal (intraocular pressure; Group 2, 0.45 mg/eye topical BID, Day 7, AM, OS): 23.3 and 22.7 and 26.0
- Intraocular pressure (IOP), individual animal (intraocular pressure; Group 2, 0.45 mg/eye topical BID, Day 7, PM, OD): 24.8 and 25.2 and 26.0
- Intraocular pressure (IOP), individual animal (intraocular pressure; Group 2, 0.45 mg/eye topical BID, Day 7, PM, OS): 25.3 and 28.0 and 24.7 and 26.0
- Intraocular pressure (IOP), individual animal (intraocular pressure; Group 2, 0.45 mg/eye topical BID, Day 8, AM, OS): 23.0
- Intraocular pressure (IOP), individual animal (intraocular pressure; Group 3, 1.2 mg/eye topical BID, Day 6, AM, OD): 24.3 and 23.3 and 22.3 and 24.2
- Intraocular pressure (IOP), individual animal (intraocular pressure; Group 3, 1.2 mg/eye topical BID, Day 6, AM, OS): 25.3 and 24.5
- Intraocular pressure (IOP), individual animal (intraocular pressure; Group 3, 1.2 mg/eye topical BID, Day 7, AM, OD): 22.7
- Intraocular pressure (IOP), individual animal (intraocular pressure; Group 3, 1.2 mg/eye topical BID, Day 7, AM, OS): 22.0
- Intraocular pressure (IOP), individual animal (intraocular pressure; Group 3, 1.2 mg/eye topical BID, Day 7, PM, OD): 23.5 and 24.3 and 22.0
- Intraocular pressure (IOP), individual animal (intraocular pressure; Group 3, 1.2 mg/eye topical BID, Day 8, AM, OD): 25.2 and 24.5
- Intraocular pressure (IOP), individual animal (intraocular pressure; Group 3, 1.2 mg/eye topical BID, Day 8, AM, OS): 23.7 and 23.0 and 24.3
- Intraocular pressure (IOP), individual animal (intraocular pressure; Group 4, 1.2 mg/eye topical QD, Day 3, AM, OD): 19.0
- Intraocular pressure (IOP), individual animal (intraocular pressure; Group 4, 1.2 mg/eye topical QD, Day 3, AM, OS): 20.3
- Intraocular pressure (IOP), individual animal (intraocular pressure; Group 4, 1.2 mg/eye topical QD, Day 6, AM, OD): 23.2
- Intraocular pressure (IOP), individual animal (intraocular pressure; Group 4, 1.2 mg/eye topical QD, Day 6, AM, OS): 24.5 and 23.5
- Intraocular pressure (IOP), individual animal (intraocular pressure; Group 4, 1.2 mg/eye topical QD, Day 7, AM, OD): 23.0
- Intraocular pressure (IOP), individual animal (intraocular pressure; Group 4, 1.2 mg/eye topical QD, Day 7, AM, OS): 23.7 and 20.0 and 25.2
- Intraocular pressure (IOP), individual animal (intraocular pressure; Group 4, 1.2 mg/eye topical QD, Day 7, PM, OD): 24.5 and 26.0 and 22.7 and 25.0
- Intraocular pressure (IOP), individual animal (intraocular pressure; Group 4, 1.2 mg/eye topical QD, Day 7, PM, OS): 24.3 and 26.0 (2×)
- Intraocular pressure (IOP), individual animal (intraocular pressure; Group 4, 1.2 mg/eye topical QD, Day 8, AM, OD): 22.8
- Intraocular pressure (IOP), individual animal (intraocular pressure; Group 4, 1.2 mg/eye topical QD, Day 8, AM, OS): 24.2
- Intraocular pressure (IOP), individual animal (intraocular pressure; Group 5, 10 mg/kg subcutaneous BID, Day 1, AM, OD): 22.2 and 21.5 and 22.7
- Intraocular pressure (IOP), individual animal (intraocular pressure; Group 5, 10 mg/kg subcutaneous BID, Day 1, AM, OS): 24.7
- Intraocular pressure (IOP), individual animal (intraocular pressure; Group 5, 10 mg/kg subcutaneous BID, Day 1, PM, OD): 24.3 and 26.2 and 24.0
- Intraocular pressure (IOP), individual animal (intraocular pressure; Group 5, 10 mg/kg subcutaneous BID, Day 1, PM, OS): 22.8 and 21.0
- Intraocular pressure (IOP), individual animal (intraocular pressure; Group 5, 10 mg/kg subcutaneous BID, Day 2, AM, OD): 20.2 and 21.5 and 25.3 and 22.7
- Intraocular pressure (IOP), individual animal (intraocular pressure; Group 5, 10 mg/kg subcutaneous BID, Day 2, AM, OS): 21.2 and 21.7 and 24.0 and 22.8
- Intraocular pressure (IOP), individual animal (intraocular pressure; Group 5, 10 mg/kg subcutaneous BID, Day 3, AM, OD): 20.2 and 23.3
- Intraocular pressure (IOP), individual animal (intraocular pressure; Group 5, 10 mg/kg subcutaneous BID, Day 3, AM, OS): 17.5 and 21.5 (2×) and 22.2 and 23.7
- Intraocular pressure (IOP), individual animal (intraocular pressure; Group 5, 10 mg/kg subcutaneous BID, Day 4, AM, OD): 20.0 and 21.2 (2×) and 24.7 and 22.5
- Intraocular pressure (IOP), individual animal (intraocular pressure; Group 5, 10 mg/kg subcutaneous BID, Day 4, AM, OS): 22.2 and 24.7 and 23.3
- Intraocular pressure (IOP), individual animal (intraocular pressure; Group 5, 10 mg/kg subcutaneous BID, Day 5, AM, OD): 14.0 and 23.7 and 26.7
- Intraocular pressure (IOP), individual animal (intraocular pressure; Group 5, 10 mg/kg subcutaneous BID, Day 5, AM, OS): 21.0 and 23.2 and 26.2
- Intraocular pressure (IOP), individual animal (intraocular pressure; Group 5, 10 mg/kg subcutaneous BID, Day 6, AM, OD): 24.8 and 23.8 and 25.5
- Intraocular pressure (IOP), individual animal (intraocular pressure; Group 5, 10 mg/kg subcutaneous BID, Day 6, AM, OS): 24.0 and 25.7
- Intraocular pressure (IOP), individual animal (intraocular pressure; Group 5, 10 mg/kg subcutaneous BID, Day 7, AM, OD): 25.2
- Intraocular pressure (IOP), individual animal (intraocular pressure; Group 5, 10 mg/kg subcutaneous BID, Day 7, AM, OS): 24.0
- Intraocular pressure (IOP), individual animal (intraocular pressure; Group 5, 10 mg/kg subcutaneous BID, Day 7, PM, OD): 24.5 and 25.5 (2×) and 22.3
- Intraocular pressure (IOP), individual animal (intraocular pressure; Group 5, 10 mg/kg subcutaneous BID, Day 7, PM, OS): 24.3
- Intraocular pressure (IOP), individual animal (intraocular pressure; Group 5, 10 mg/kg subcutaneous BID, Day 8, AM, OD): 24.0 and 26.0
- Intraocular pressure (IOP), individual animal (intraocular pressure; Group 5, 10 mg/kg subcutaneous BID, Day 8, AM, OS): 22.0 and 24.8 and 25.5
